According to publication PMC10169665:
These are yes or no findings as the source states them, for the method shown. Binding seen in cells or lysates may run through a third protein. Some binding calls cover weakened binding; strength is not graded here.

By UniProt entry, the sequences of proteins in these tests, tags left out.
UniProt O88545: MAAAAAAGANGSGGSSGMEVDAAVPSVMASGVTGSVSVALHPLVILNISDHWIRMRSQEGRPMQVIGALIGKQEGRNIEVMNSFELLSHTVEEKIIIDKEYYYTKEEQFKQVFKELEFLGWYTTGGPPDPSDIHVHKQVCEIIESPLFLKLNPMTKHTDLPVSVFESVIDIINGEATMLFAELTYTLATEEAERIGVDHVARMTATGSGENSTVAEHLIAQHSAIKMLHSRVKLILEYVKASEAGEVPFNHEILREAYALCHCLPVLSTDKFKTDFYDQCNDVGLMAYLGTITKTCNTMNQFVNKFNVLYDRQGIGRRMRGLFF

Experiments:
[1] = substrate: CSN subunit 6 (CSN6), a subunit of COP9 signalosome (mouse (endogenous in bone marrow HSCs / Lin- c-Kit+ cells)) (UniProt O88545); assay: proximity ligation; in situ proximity ligation assay in mouse HSCs upon 5-FU and IR treatment
[2] = substrate: CSN subunit 6 (CSN6), a subunit of COP9 signalosome (mouse (endogenous in bone marrow HSCs / Lin- c-Kit+ cells)) (UniProt O88545); assay: co-IP; Lin- c-Kit+ cells purified from the BM of mice at day 9 after 5-FU injection; IgG antibody as negative control; endogenous proteins

- binding [1]: binds
- binding [2]: binds
B1: Thymocyte-expressed, positive selection-associated 1 (Tespa1) (protein, UniProt Q3U132 1-458)
chain: MEASVLSPTSWEKRRAWLRQSRNWQTQVLEEEAAAALQDALDPEPSSLDDVFQEGNPINKIEDWLQGCGCRDTEEGLSEESGQSNYSGYSSHGTSFEDDLSLGAEATLLSTNGNLFSRNFLQTPRLCQLLDLGSSLASSSMTGGTNKTSSSISEILDQVQEDAEDILFSLGFGHENHKDTSRIPARFFSNPSQAKGINFQLFLKSQVQRMEMEDPCLMLASRFKQVQTLAVTADAFFCLYSYVSKTPVQKFTPSNMFWNFDPTDVPSIRILAPEPEPYSPRERLRRAISKMCLYTGSRDRLSSSYNNPKKNSLDQIVWEVMDRVKGEKIQQDPEHRQALGEESVPPIQNTNPSTSSLPCVSYPKEETQGDMCHAHALARPGPQYHINSTQVRRQLWVLQDINEKPRSAENESPWERKSKARKNLFQRVPVDKNIKSLNLPTIQQKQNQGQARHELTNL
